Structures can show the parent of a compound that is named as a salt. This is one part of the list. Hit calls seldom repeat between salt and free forms of one compound.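 In K562 cells expressing nanoluciferase-fused kinases, luminescence was recorded at 4 h intervals between 2 and 18 h, normalized as percent of control with DMSO at 100% and a positive control at 0%. A significant (2 sigma) signal drop marks a time point as decreased. The authors' rule for a hit is not shown and takes in more than the number of time points.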
Columns and labels:
Experiment in all cases: kinase-Nluc reporter destabilization hit call (1 = scored as downregulated) (binary); higher = compound decreases kinase abundance
Details in all cases: K562; 2-18 h
[1] = biological target: PDPK1 (UniProt O15530)
[2] = biological target: PIK4CA (UniProt P42356)
[3] = biological target: PIK4CB (UniProt Q9UBF8)
[4] = biological target: PLK1 (UniProt P53350)
[5] = biological target: PRKAA1 (UniProt Q13131)
[6] = biological target: PRKCA (UniProt P17252)
[7] = biological target: PTK2 (UniProt Q05397)
[8] = biological target: PTK2B (UniProt Q14289)
[9] = biological target: RAF1 (UniProt P04049)
[10] = biological target: RAF1_S257L (clone: RAF1_mut) (UniProt P04049)

The chains behind the UniProt entries cited, without tags or fusion partners. Where a name states a change or a piece, a line headed by the entry shows the natural chain unless it says otherwise.
UniProt O15530: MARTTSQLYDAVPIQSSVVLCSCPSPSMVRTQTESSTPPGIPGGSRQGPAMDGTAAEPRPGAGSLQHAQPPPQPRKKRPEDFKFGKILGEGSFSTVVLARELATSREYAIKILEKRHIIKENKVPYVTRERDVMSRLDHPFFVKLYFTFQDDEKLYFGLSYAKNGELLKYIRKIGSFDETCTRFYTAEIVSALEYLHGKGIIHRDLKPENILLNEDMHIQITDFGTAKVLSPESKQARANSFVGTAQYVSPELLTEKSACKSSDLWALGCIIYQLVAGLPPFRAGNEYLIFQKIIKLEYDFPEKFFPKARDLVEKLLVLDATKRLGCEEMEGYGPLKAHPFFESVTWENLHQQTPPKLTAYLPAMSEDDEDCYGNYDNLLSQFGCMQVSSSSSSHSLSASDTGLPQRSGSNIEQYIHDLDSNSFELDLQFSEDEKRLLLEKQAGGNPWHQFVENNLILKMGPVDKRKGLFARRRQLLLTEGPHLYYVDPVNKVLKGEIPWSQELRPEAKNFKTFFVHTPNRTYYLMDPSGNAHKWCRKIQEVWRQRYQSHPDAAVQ
UniProt P42356, whole entry, looked up: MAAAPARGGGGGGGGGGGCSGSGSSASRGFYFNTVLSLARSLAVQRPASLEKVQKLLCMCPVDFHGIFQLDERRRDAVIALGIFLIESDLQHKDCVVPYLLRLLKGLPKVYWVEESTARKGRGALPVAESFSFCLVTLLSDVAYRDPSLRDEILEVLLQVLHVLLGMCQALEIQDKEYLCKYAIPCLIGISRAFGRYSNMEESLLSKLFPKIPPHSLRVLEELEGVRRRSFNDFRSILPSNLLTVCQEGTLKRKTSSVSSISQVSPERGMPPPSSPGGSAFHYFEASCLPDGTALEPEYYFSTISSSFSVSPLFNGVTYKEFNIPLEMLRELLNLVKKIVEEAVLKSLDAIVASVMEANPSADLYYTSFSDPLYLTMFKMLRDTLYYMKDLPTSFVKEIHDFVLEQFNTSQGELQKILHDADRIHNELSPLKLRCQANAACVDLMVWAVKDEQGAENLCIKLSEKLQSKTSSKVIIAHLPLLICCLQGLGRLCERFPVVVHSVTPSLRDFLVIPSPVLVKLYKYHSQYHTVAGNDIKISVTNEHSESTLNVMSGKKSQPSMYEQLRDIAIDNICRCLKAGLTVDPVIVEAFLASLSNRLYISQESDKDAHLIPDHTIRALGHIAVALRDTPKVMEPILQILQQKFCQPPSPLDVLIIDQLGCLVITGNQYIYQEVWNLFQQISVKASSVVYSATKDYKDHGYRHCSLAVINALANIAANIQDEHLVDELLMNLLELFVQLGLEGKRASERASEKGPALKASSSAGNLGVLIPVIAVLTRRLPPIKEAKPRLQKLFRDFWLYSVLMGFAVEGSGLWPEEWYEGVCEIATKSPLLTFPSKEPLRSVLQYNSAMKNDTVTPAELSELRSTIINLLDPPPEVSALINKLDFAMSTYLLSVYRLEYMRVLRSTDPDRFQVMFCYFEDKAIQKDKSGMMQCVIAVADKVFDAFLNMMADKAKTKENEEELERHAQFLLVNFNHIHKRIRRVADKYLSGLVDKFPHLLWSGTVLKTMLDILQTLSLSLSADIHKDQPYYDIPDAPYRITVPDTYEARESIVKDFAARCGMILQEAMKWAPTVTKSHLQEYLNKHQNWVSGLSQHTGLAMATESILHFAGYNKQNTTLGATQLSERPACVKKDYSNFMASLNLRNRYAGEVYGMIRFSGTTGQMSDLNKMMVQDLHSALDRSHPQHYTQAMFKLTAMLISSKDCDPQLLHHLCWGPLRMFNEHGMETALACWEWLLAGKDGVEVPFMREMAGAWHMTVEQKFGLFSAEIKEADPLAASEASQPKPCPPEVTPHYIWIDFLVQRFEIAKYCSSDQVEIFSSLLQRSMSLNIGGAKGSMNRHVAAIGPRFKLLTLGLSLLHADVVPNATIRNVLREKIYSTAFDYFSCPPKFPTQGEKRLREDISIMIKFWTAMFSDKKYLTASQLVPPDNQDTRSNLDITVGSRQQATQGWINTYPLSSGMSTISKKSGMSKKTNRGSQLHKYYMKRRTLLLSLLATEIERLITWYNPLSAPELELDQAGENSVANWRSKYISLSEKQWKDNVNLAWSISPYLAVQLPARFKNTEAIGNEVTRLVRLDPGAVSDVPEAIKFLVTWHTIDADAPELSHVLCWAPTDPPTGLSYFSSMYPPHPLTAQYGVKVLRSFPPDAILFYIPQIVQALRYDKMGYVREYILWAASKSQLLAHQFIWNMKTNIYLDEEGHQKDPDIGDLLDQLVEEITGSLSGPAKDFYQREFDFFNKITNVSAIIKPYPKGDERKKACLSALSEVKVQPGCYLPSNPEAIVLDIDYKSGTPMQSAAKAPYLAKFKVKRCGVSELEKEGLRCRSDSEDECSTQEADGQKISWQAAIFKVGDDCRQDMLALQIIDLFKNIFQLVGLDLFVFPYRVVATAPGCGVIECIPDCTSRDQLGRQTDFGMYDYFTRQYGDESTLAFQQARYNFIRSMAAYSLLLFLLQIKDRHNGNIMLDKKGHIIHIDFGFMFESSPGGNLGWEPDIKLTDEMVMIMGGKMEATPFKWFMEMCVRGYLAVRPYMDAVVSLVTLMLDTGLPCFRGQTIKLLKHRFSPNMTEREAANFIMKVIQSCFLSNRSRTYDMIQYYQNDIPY
UniProt Q9UBF8: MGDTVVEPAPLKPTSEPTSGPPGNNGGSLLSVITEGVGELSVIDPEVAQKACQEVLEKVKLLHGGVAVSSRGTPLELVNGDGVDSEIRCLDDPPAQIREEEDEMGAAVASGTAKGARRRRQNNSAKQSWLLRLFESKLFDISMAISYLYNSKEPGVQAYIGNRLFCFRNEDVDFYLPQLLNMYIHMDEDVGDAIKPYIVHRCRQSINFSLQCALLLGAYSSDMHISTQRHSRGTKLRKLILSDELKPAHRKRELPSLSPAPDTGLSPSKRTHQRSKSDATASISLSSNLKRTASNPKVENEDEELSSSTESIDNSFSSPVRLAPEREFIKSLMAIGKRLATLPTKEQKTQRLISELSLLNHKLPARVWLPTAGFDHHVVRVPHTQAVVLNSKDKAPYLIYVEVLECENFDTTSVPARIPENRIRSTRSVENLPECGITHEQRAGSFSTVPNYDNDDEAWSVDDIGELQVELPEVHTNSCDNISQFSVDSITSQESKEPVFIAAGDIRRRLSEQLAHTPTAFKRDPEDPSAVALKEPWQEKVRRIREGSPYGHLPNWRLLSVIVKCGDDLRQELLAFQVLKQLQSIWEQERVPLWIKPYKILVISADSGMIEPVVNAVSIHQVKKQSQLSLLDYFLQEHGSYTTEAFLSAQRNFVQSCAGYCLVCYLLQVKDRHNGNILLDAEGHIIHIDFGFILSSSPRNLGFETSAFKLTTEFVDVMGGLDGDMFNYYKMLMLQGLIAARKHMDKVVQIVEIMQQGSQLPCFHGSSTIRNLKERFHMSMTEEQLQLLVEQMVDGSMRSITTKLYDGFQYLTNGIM
UniProt P53350, whole entry: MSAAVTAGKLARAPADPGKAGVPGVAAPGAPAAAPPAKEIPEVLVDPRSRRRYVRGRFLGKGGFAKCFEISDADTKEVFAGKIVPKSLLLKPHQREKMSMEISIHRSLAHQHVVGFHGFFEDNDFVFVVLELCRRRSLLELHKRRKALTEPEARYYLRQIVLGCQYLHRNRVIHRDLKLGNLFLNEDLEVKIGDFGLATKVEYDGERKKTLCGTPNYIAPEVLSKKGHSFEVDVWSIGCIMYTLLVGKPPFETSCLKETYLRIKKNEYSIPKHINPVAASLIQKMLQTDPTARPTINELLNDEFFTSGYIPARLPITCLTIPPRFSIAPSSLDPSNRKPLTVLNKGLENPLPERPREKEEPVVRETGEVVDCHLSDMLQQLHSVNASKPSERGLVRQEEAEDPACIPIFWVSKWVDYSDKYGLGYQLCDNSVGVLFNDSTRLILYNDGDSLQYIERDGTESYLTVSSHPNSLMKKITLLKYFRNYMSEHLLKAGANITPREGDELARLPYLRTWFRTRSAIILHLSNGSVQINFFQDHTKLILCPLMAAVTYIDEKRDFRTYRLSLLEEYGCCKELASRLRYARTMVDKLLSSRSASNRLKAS
UniProt Q05397, whole entry, looked up: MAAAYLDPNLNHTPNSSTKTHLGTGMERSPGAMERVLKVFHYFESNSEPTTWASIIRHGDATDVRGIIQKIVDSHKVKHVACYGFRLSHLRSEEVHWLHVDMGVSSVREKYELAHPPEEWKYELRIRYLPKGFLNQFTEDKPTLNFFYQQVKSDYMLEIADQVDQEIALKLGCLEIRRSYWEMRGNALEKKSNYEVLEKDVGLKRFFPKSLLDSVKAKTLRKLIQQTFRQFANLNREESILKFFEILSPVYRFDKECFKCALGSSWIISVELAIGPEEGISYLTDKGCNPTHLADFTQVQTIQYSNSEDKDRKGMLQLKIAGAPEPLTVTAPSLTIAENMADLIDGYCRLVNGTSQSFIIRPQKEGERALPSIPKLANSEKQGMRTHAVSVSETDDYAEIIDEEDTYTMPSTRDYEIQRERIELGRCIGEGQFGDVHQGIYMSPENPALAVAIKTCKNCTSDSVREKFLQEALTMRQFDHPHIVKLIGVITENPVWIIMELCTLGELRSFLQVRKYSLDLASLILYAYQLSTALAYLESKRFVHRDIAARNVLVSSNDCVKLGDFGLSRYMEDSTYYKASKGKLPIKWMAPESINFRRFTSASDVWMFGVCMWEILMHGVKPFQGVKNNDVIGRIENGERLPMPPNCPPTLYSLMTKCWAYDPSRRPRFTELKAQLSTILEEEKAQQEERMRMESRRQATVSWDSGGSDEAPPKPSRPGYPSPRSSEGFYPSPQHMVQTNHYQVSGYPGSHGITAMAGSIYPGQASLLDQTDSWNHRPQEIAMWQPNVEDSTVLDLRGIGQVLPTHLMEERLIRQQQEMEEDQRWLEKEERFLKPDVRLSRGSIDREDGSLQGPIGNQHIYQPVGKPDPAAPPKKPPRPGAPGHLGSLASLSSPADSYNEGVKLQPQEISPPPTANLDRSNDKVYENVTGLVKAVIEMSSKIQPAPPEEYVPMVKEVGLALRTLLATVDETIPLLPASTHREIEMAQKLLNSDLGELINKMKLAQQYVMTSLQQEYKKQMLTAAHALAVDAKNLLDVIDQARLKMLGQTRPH
UniProt Q14289, whole entry, looked up: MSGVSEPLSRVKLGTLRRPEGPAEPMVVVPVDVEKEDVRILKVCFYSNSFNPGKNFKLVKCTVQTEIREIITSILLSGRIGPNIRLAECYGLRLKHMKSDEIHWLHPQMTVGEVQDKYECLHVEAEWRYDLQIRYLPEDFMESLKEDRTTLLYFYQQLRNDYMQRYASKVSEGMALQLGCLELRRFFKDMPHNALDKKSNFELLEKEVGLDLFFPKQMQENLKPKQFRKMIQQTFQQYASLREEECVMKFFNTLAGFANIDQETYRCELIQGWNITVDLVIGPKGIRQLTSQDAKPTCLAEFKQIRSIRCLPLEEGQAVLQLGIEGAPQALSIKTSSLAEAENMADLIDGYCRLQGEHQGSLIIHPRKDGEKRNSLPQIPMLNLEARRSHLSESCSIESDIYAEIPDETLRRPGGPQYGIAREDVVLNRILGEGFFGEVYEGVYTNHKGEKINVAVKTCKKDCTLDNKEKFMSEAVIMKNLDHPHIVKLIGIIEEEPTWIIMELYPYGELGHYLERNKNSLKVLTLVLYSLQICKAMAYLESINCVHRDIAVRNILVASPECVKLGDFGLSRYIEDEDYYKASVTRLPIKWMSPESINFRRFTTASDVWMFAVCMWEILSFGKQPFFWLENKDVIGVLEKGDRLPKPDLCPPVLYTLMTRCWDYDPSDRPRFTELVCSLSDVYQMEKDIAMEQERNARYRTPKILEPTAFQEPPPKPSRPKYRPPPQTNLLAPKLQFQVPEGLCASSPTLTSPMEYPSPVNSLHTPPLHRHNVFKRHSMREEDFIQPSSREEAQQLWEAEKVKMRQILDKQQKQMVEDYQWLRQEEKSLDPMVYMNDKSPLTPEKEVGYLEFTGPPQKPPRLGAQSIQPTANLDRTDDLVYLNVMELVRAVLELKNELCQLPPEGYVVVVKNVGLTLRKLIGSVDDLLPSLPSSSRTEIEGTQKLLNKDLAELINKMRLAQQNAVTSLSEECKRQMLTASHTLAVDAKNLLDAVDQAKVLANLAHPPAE

Row | SMILES | kinase-Nluc reporter destabilization hit call [1] | kinase-Nluc reporter destabilization hit call [2] | kinase-Nluc reporter destabilization hit call [3] | kinase-Nluc reporter destabilization hit call [4] | kinase-Nluc reporter destabilization hit call [5] | kinase-Nluc reporter destabilization hit call [6] | kinase-Nluc reporter destabilization hit call [7] | kinase-Nluc reporter destabilization hit call [8] | kinase-Nluc reporter destabilization hit call [9] | kinase-Nluc reporter destabilization hit call [10]
1 | CC[C@@]1(c2ccccc2)C2=C(CC(C)(C)CC2=O)Nc2[nH]ncc21 (10 µM) | inactive: 0 | inactive: 0 | inactive: 0 | inactive: 0 | inactive: 0 | inactive: 0 | inactive: 0 | inactive: 0 | inactive: 0 | inactive: 0
2 | CNC(=O)Nc1ccc(-c2cc(-c3ccnc(Nc4ccc(C)c(S(=O)(=O)N(C)C)c4)n3)ccn2)cc1 [hSMG-1 inhibitor 11e] (2.5 µM) | inactive: 0 | inactive: 0 | inactive: 0 | inactive: 0 | inactive: 0 | inactive: 0 | inactive: 0 | inactive: 0 | inactive: 0 | inactive: 0
3 | O=C1Nc2nc(-c3c(O)cccc3OCC3CC3)cc([C@@H]3CCCNC3)c2CO1 [Bay 65-1942 (hydrochloride)] (10 µM) | inactive: 0 | inactive: 0 | inactive: 0 | inactive: 0 | inactive: 0 | inactive: 0 | inactive: 0 | inactive: 0 | inactive: 0 | inactive: 0
4 | CCOc1ccc(C(=O)Nc2ncc([N+](=O)[O-])s2)cc1 (10 µM) | inactive: 0 | inactive: 0 | inactive: 0 | inactive: 0 | inactive: 0 | inactive: 0 | inactive: 0 | inactive: 0 | inactive: 0 | inactive: 0
5 | C[C@@H](c1ccc2nccn2c1)n1nnc2ncc(-c3cnn(C)c3)nc21 [Savolitinib] (10 µM) | inactive: 0 | inactive: 0 | inactive: 0 | inactive: 0 | inactive: 0 | inactive: 0 | inactive: 0 | inactive: 0 | inactive: 0 | inactive: 0
6 | c1cc2c(cc1O[C@H]1OC[C@H]3[C@@H]1CO[C@@H]3c1ccc3c(c1)OCO3)OCO2 [Sesamolin] (10 µM) | inactive: 0 | inactive: 0 | inactive: 0 | inactive: 0 | inactive: 0 | inactive: 0 | inactive: 0 | inactive: 0 | inactive: 0 | inactive: 0
7 | Cc1c(NC(=O)OC[C@@H]2COCCN2)cn2ncnc(Nc3ccc4c(cnn4Cc4cccc(F)c4)c3)c12 (10 µM) | inactive: 0 | inactive: 0 | inactive: 0 | inactive: 0 | inactive: 0 | inactive: 0 | inactive: 0 | inactive: 0 | inactive: 0 | inactive: 0
8 | C[C@]1(O)CCC[C@@H]1n1c(=O)c(C(F)F)cc2cnc(NC3CCN(S(C)(=O)=O)CC3)nc21 (10 µM) | inactive: 0 | inactive: 0 | inactive: 0 | inactive: 0 | inactive: 0 | inactive: 0 | inactive: 0 | inactive: 0 | inactive: 0 | inactive: 0
9 | CN(CC(=O)N(Cc1ccc(C2CCCCC2)cc1)c1ccc(C(=O)O)cc1)S(=O)(=O)c1c(F)c(F)c(F)c(F)c1F (2.5 µM) | inactive: 0 | inactive: 0 | inactive: 0 | inactive: 0 | inactive: 0 | inactive: 0 | inactive: 0 | inactive: 0 | active: 1 | inactive: 0
10 | Nc1ncc(-c2cccc(N3CCNCC3)c2)cc1C(=O)Nc1ccncc1 [PKC-iota inhibitor 1] (10 µM) | inactive: 0 | inactive: 0 | inactive: 0 | inactive: 0 | inactive: 0 | inactive: 0 | inactive: 0 | inactive: 0 | inactive: 0 | inactive: 0
11 | Nc1ncnc2c1ncn2[C@@H]1O[C@H](CO)C[C@H]1O [Cordycepin] (10 µM) | inactive: 0 | inactive: 0 | inactive: 0 | inactive: 0 | inactive: 0 | inactive: 0 | inactive: 0 | inactive: 0 | inactive: 0 | inactive: 0
12 | c1cn2cc(-c3ccc4cn[nH]c4c3)nc(Nc3ccc(N4CCOCC4)cc3)c2n1 [Entospletinib] (10 µM) | inactive: 0 | inactive: 0 | inactive: 0 | inactive: 0 | inactive: 0 | inactive: 0 | inactive: 0 | inactive: 0 | inactive: 0 | inactive: 0
13 | COc1cc([N+](=O)[O-])ccc1S(=O)(=O)N1C[C@@H](CN2CCN(c3ccccn3)CC2)[C@H](c2cccc(F)c2)C1 (relative stereo) (10 µM) | inactive: 0 | inactive: 0 | inactive: 0 | inactive: 0 | inactive: 0 | inactive: 0 | inactive: 0 | inactive: 0 | inactive: 0 | inactive: 0
14 | CC1CN(C(=O)Nc2ccc(Cl)c(Cl)c2)C(=Nc2ccc(F)cc2)S1 (stereo not given) (10 µM) | inactive: 0 | inactive: 0 | inactive: 0 | inactive: 0 | inactive: 0 | inactive: 0 | inactive: 0 | inactive: 0 | inactive: 0 | inactive: 0
15 | Cc1cc(Nc2cc(Cl)nc(Oc3ccc([N+](=O)[O-])cc3)n2)n[nH]1 [Autophinib] (2.5 µM) | inactive: 0 | inactive: 0 | inactive: 0 | inactive: 0 | inactive: 0 | inactive: 0 | inactive: 0 | inactive: 0 | inactive: 0 | inactive: 0
16 | CC1CCc2nc(N)c(C#N)c(-c3cccnc3)c2C1 (stereo not given) (10 µM) | inactive: 0 | inactive: 0 | inactive: 0 | inactive: 0 | inactive: 0 | inactive: 0 | inactive: 0 | inactive: 0 | inactive: 0 | inactive: 0
17 | O=C(/C=C/c1ccc(O)c(O)c1)OC1CC(OC(=O)/C=C/c2ccc(O)c(O)c2)(C(=O)O)CC(O)C1O (stereo not given) [1,3-Dicaffeoylquinic acid] (10 µM) | inactive: 0 | inactive: 0 | inactive: 0 | inactive: 0 | inactive: 0 | inactive: 0 | inactive: 0 | inactive: 0 | inactive: 0 | inactive: 0
18 | COc1ccc2[nH]cc(/C=C3\C(=O)Nc4ccc(NC(=O)CCN5CCCCC5)cc43)c2c1 (2.5 µM) | inactive: 0 | inactive: 0 | inactive: 0 | inactive: 0 | inactive: 0 | inactive: 0 | inactive: 0 | inactive: 0 | inactive: 0 | inactive: 0
19 | Nc1cc(Nc2ccc(S(N)(=O)=O)cc2)ncn1 (10 µM) | inactive: 0 | inactive: 0 | inactive: 0 | inactive: 0 | inactive: 0 | inactive: 0 | inactive: 0 | inactive: 0 | inactive: 0 | inactive: 0
20 | CC(C)CN(CC(=O)N1CCN(CC(OCc2ccc3ccccc3c2)c2ccc(Cl)cc2Cl)CC1)CC(C)C (stereo not given) [LYN-1604 (dihydrochloride)] (2.5 µM) | inactive: 0 | inactive: 0 | inactive: 0 | inactive: 0 | inactive: 0 | inactive: 0 | inactive: 0 | inactive: 0 | inactive: 0 | inactive: 0
21 | CNCc1ccccc1-c1csc([C@@H](C)Nc2nc(C)nc3cc(OC)c(OC)cc23)c1 (2.5 µM) | inactive: 0 | inactive: 0 | inactive: 0 | inactive: 0 | inactive: 0 | inactive: 0 | inactive: 0 | inactive: 0 | inactive: 0 | inactive: 0
22 | COc1cc2c[n+](C)c3c4cc5c(cc4ccc3c2cc1OC)OCO5 [Nitidine (chloride)] (2 µM) | inactive: 0 | inactive: 0 | inactive: 0 | inactive: 0 | inactive: 0 | inactive: 0 | inactive: 0 | inactive: 0 | inactive: 0 | inactive: 0
23 | C#CCN(C)C(=O)CCNc1nc(N2CCN(C(=O)C=C)CC2)c2cc(Cl)c(-c3c(O)cccc3F)c(F)c2n1 [ARS-1323-alkyne] (2.5 µM) | inactive: 0 | inactive: 0 | inactive: 0 | inactive: 0 | inactive: 0 | inactive: 0 | inactive: 0 | inactive: 0 | inactive: 0 | inactive: 0
24 | NCc1ccc(Nc2ncc(F)c(Nc3ccccc3)n2)cc1 (10 µM) | inactive: 0 | inactive: 0 | inactive: 0 | inactive: 0 | inactive: 0 | inactive: 0 | inactive: 0 | inactive: 0 | inactive: 0 | inactive: 0
25 | CC(C)=CC[C@H](O)C1=CC(=O)c2c(O)ccc(O)c2C1=O [(-)-Alkannin] (2.5 µM) | inactive: 0 | inactive: 0 | inactive: 0 | inactive: 0 | inactive: 0 | inactive: 0 | inactive: 0 | inactive: 0 | inactive: 0 | inactive: 0
26 | COc1cc(S(C)(=O)=O)ccc1Nc1nc2ccc(-c3ccc(NC(=O)[C@H](C)c4ccc(F)cc4)cc3)cn2n1 [Empesertib] (10 µM) | inactive: 0 | inactive: 0 | inactive: 0 | inactive: 0 | inactive: 0 | inactive: 0 | inactive: 0 | inactive: 0 | inactive: 0 | inactive: 0
27 | COc1ccc(Cl)cc1NC(=O)Nc1cc(C)nc2ccccc12 (2.5 µM) | inactive: 0 | inactive: 0 | inactive: 0 | inactive: 0 | inactive: 0 | inactive: 0 | inactive: 0 | inactive: 0 | inactive: 0 | inactive: 0
28 | Cc1ccc(S(=O)(=O)Nc2ccccc2C=Nc2ccccc2NS(=O)(=O)c2ccc(C)cc2)cc1 (10 µM) | inactive: 0 | inactive: 0 | inactive: 0 | inactive: 0 | inactive: 0 | inactive: 0 | inactive: 0 | inactive: 0 | inactive: 0 | inactive: 0
29 | C=C(CCC=C(C)C)[C@H]1CC[C@]2(C)[C@@H]1[C@H](O)C[C@@H]1[C@@]3(C)CC[C@H](O[C@@H]4O[C@H](CO)[C@@H](O)[C@H](O)[C@H]4O[C@@H]4O[C@H](CO)[C@@H](O)[C@H](O)[C@H]4O)C(C)(C)[C@@H]3CC[C@]12C [Ginsenoside Rk1] (10 µM) | inactive: 0 | inactive: 0 | inactive: 0 | inactive: 0 | inactive: 0 | inactive: 0 | inactive: 0 | inactive: 0 | inactive: 0 | inactive: 0

Individual results from the entries so far.
In kinase-Nluc reporter destabilization hit call [6], `NCc1ccc(Nc2ncc(F)c(Nc3ccccc3)n2)cc1` (10 µM) is listed with inactive: 0
In kinase-Nluc reporter destabilization hit call [10], `Cc1cc(Nc2cc(Cl)nc(Oc3ccc([N+](=O)[O-])cc3)n2)n[nH]1` [Autophinib] (2.5 µM) is listed with inactive: 0

Given tab-delimited: part of the list above
Row	SMILES	kinase-Nluc reporter destabilization hit call [1]	kinase-Nluc reporter destabilization hit call [2]	kinase-Nluc reporter destabilization hit call [3]	kinase-Nluc reporter destabilization hit call [4]	kinase-Nluc reporter destabilization hit call [5]	kinase-Nluc reporter destabilization hit call [6]	kinase-Nluc reporter destabilization hit call [7]	kinase-Nluc reporter destabilization hit call [8]	kinase-Nluc reporter destabilization hit call [9]	kinase-Nluc reporter destabilization hit call [10]
9	CN(CC(=O)N(Cc1ccc(C2CCCCC2)cc1)c1ccc(C(=O)O)cc1)S(=O)(=O)c1c(F)c(F)c(F)c(F)c1F (2.5 µM)	inactive: 0	inactive: 0	inactive: 0	inactive: 0	inactive: 0	inactive: 0	inactive: 0	inactive: 0	active: 1	inactive: 0
10	Nc1ncc(-c2cccc(N3CCNCC3)c2)cc1C(=O)Nc1ccncc1 [PKC-iota inhibitor 1] (10 µM)	inactive: 0	inactive: 0	inactive: 0	inactive: 0	inactive: 0	inactive: 0	inactive: 0	inactive: 0	inactive: 0	inactive: 0
